Results are given in words; binding and its absence hold for the method and conditions named. For some of these results: Binding can be weak; no strength is given. For some of these results: Binding seen in cells or lysates may run through a third protein. For some of these results: Tags and fused reporters may be left off the sequences shown.
B1: MEILB2 (endogenous, mouse testis) (protein, UniProt Q9D4G2 1-338)
chain: MAATVGDGSGTEEACRNMESKEEFVKVRKKDLERLTTEVMQIRDFLPRILNGELLESFQKLKMVEKNLERKEQELEQLIMDREHFKARLETAQADSGREKKEKLALRQQLNEAKQQLLQQAEYCTQMGAVTCTLLWGVSSSEEVVKTILGGDKALKFFNITGQTMESFVKSLDGDVKEVDSDENQFVFALAGIVTNVAAIACGREFLVNSSRVLLDTMLQLLGDLKPGQCTKLKVLMLMSLYNVSINSKGLKYITESPGFIPLLWWLLSDPDAEVCLHTLRLIQSVVLEPDVFSKVASELQSSLPLQRILAMSKSRNSHLQSAAQELLEDLRALDCNV
B2: MYC-tagged MEILB2 (MEILB2-MYC) (protein, UniProt Q9D4G2 1-338)
chain: B1 chain
B3: DMC1 (endogenous, mouse testis) (protein, UniProt Q61880 1-340)
chain: MKEDQVVQEESGFQDDEESLFQDIDLLQKHGINMADIKKLKSVGICTIKGIQMTTRRALCNVKGLSEAKVEKIKEAANKLIEPGFLTAFQYSERRKMVFHITTGSQEFDKLLGGGIESMAITEAFGEFRTGKTQLSHTLCVTAQLPGTGGYSGGKIIFIDTENTFRPDRLRDIADRFNVDHEAVLDNVLYARAYTSEHQMELLDYVAAKFHEEAGIFKLLIIDSIMALFRVDFSGRGELAERQQKLAQMLSRLQKISEEYNVAVFVTNQMTADPGATMTFQADPKKPIGGHILAHASTTRISLRKGRGELRIAKIYDSPEMPENEATFAITAGGIGDAKE

Assays:
[1] = biological target: T1, MEILB2 (bait of the Y2H assay, in pGBKT7) (mouse) (UniProt Q9D4G2); assay: two-hybrid; baits in pGBKT7, Brme1 preys in pGADT7, co-transformed into AH109; SD–tryptophan–leucine–histidine–adenine
T1 sequence: B1 chain

[2] = biological target: BRME1 (endogenous, mouse testis) (mouse (endogenous in testis)); assay: co-IP; IPs with the BRME1 or BRCA2 antibodies on Dynabeads protein A from mouse testis extracts; wash with 400 mM KCl buffer; western blotting
[3] = biological target: FLAG-tagged BRME1 F (a.a. 1–605) (mouse); assay: co-IP; IP with the FLAG antibody (Anti-FLAG M2 Magnetic Beads) from B16-F1 cells expressing MEILB2-MYC and FLAG-BRME1 truncations; wash with 400 mM KCl buffer
[4] = biological target: FLAG-tagged BRME1 MBD (a.a. 519–600) (mouse); assay: as above
[5] = biological target: FLAG-tagged BRME1 N (a.a. 1–518) (mouse); assay: as above

Row | binding [1] | binding [2] | further results | Molecule
1 | binds |  |  | BRME1-MBD (a.a. 519–600), Y2H prey (mouse) (domain or fragment)
2 | no binding |  |  | BRME1-N (a.a. 1–518), Y2H prey (mouse) (domain or fragment)
3 |  | binds |  | B1
4 |  |  | binding [3]: binds; binding [4]: binds; binding [5]: no binding | B2
5 |  | no binding |  | B3

From paper PMC7188823, “The BRCA2-MEILB2-BRME1 complex governs meiotic recombination and impairs the mitotic BRCA2-RAD51 function in cancer cells” (Nature Communications, 2020)
